Source: PubChem BioAssay AID186 (DTP/NCI, 2004)
The mice bore no tumour; each value counts animals alive of those treated. Survivors were counted at the toxicity check, usually on the fifth day, unless a day is given; later deaths do not show. Schedule codes are those of the source, taken here to give the interval after Q, in days (D) or hours (H), and the number of doses after X. Some entries were tested several times; the values are given in rising order.

System: B6D2F1 mice, nontumored toxicity test, survival
Experiment: NCI In Vivo Anticancer Drug Screen. Data for tumor model Nontumored Animals (Toxicity Test) in B6D2F1 (BDF1) mice

## O=c1[nH]cc(F)c(=O)[nH]1
dose: 50.0 mg/kg/injection, schedule: Q04DX003 (ip), vehicle: saline
  survivor count: 8 of 8
dose: 50.0 mg/kg/injection, schedule: Q04DX005 (ip), vehicle: saline
  survivor count: 8 of 8
dose: 53.7 mg/kg/injection, schedule: Q01DX005 (sc), vehicle: other
  survivor count: 6 of 6
dose: 53.7 mg/kg/injection, schedule: Q04DX002 (sc), vehicle: other
  survivor count: 6 of 6
dose: 55.0 mg/kg/injection, schedule: Q01DX004 (other), vehicle: saline
  survivor count: 6 of 6
dose: 55.0 mg/kg/injection, schedule: Q01DX006 (other), vehicle: saline
  survivor count: 6 of 6
dose: 55.0 mg/kg/injection, schedule: Q01DX008 (other), vehicle: saline
  survivor count: 6 of 6
dose: 55.0 mg/kg/injection, schedule: Q01DX012 (other), vehicle: saline
  survivor count: 6 of 6
dose: 55.0 mg/kg/injection, schedule: Q01DX016 (other), vehicle: saline
  survivor count: 6 of 6
dose: 64.0 mg/kg/injection, schedule: Q04DX003 (ip), vehicle: water
  survivor count: 6 of 6
dose: 67.1 mg/kg/injection, schedule: Q01DX002 (sc), vehicle: other
  survivor count: 6 of 6
dose: 67.1 mg/kg/injection, schedule: Q01DX005 (sc), vehicle: other
  survivor count: 6 of 6
dose: 67.1 mg/kg/injection, schedule: Q04DX002 (sc), vehicle: other
  survivor count: 6 of 6
dose: 68.7 mg/kg/injection, schedule: Q01DX004 (other), vehicle: saline
  survivor count: 6 of 6
dose: 68.7 mg/kg/injection, schedule: Q01DX006 (other), vehicle: saline
  survivor count: 6 of 6
dose: 68.7 mg/kg/injection, schedule: Q01DX008 (other), vehicle: saline
  survivor count: 6 of 6
dose: 68.7 mg/kg/injection, schedule: Q01DX012 (other), vehicle: saline
  survivor count: 6 of 6
dose: 83.9 mg/kg/injection, schedule: Q01DX002 (sc), vehicle: other
  survivor count: 6 of 6
dose: 83.9 mg/kg/injection, schedule: Q04DX002 (sc), vehicle: other
  survivor count: 6 of 6
dose: 85.9 mg/kg/injection, schedule: Q01DX004 (other), vehicle: saline
  survivor count: 6 of 6
dose: 85.9 mg/kg/injection, schedule: Q01DX006 (other), vehicle: saline
  survivor count: 6 of 6
dose: 85.9 mg/kg/injection, schedule: Q01DX008 (other), vehicle: saline
  survivor count: 6 of 6
dose: 100.0 mg/kg/injection, schedule: Q01DX001 (ip), vehicle: saline
  survivor count: 8 of 8
dose: 100.0 mg/kg/injection, schedule: Q04DX003 (ip), vehicle: saline
  survivor count: 8 of 8
dose: 100.0 mg/kg/injection, schedule: Q04DX005 (ip), vehicle: saline
  survivor count: 8 of 8
dose: 105.0 mg/kg/injection, schedule: Q01DX002 (sc), vehicle: other
  survivor count: 6 of 6
dose: 105.0 mg/kg/injection, schedule: Q04DX002 (sc), vehicle: other
  survivor count: 6 of 6
dose: 107.0 mg/kg/injection, schedule: Q01DX002 (other), vehicle: saline
  survivor count: 6 of 6
dose: 107.0 mg/kg/injection, schedule: Q01DX004 (other), vehicle: saline
  survivor count: 6 of 6
dose: 107.0 mg/kg/injection, schedule: Q01DX006 (other), vehicle: saline
  survivor count: 6 of 6
dose: 107.0 mg/kg/injection, schedule: Q01DX008 (other), vehicle: saline
  survivor count: 6 of 6
dose: 128.0 mg/kg/injection, schedule: Q04DX003 (ip), vehicle: water
  survivor count: 6 of 6
dose: 131.0 mg/kg/injection, schedule: Q01DX002 (sc), vehicle: other
  survivor count: 6 of 6
dose: 131.0 mg/kg/injection, schedule: Q04DX002 (sc), vehicle: other
  survivor count: 6 of 6
dose: 131.0 mg/kg/injection, schedule: Q10DX002 (sc), vehicle: other
  survivor count: 6 of 6
dose: 134.0 mg/kg/injection, schedule: Q01DX002 (other), vehicle: saline
  survivor count: 6 of 6
dose: 134.0 mg/kg/injection, schedule: Q01DX004 (other), vehicle: saline
  survivor count: 6 of 6
dose: 134.0 mg/kg/injection, schedule: Q01DX006 (other), vehicle: saline
  survivor count: 6 of 6
dose: 150.0 mg/kg/injection, schedule: Q01DX001 (ip), vehicle: saline
  survivor count: 10 of 10
dose: 164.0 mg/kg/injection, schedule: Q01DX001 (sc), vehicle: other
  survivor count: 6 of 6
dose: 164.0 mg/kg/injection, schedule: Q01DX002 (sc), vehicle: other
  survivor count: 6 of 6
dose: 164.0 mg/kg/injection, schedule: Q10DX002 (sc), vehicle: other
  survivor count: 6 of 6
dose: 168.0 mg/kg/injection, schedule: Q01DX001 (other), vehicle: saline
  survivor count: 6 of 6
dose: 168.0 mg/kg/injection, schedule: Q01DX002 (other), vehicle: saline
  survivor count: 6 of 6
dose: 168.0 mg/kg/injection, schedule: Q01DX004 (other), vehicle: saline
  survivor count: 6 of 6
dose: 168.0 mg/kg/injection, schedule: Q01DX006 (other), vehicle: saline
  survivor count: 6 of 6
dose: 175.0 mg/kg/injection, schedule: Q01DX001 (ip), vehicle: saline
  survivor count: 10 of 10
dose: 200.0 mg/kg/injection, schedule: Q01DX001 (ip), vehicle: saline
  survivor count: 10 of 10 and 8 of 8
dose: 200.0 mg/kg/injection, schedule: Q04DX003 (ip), vehicle: saline
  survivor count: 8 of 8
dose: 205.0 mg/kg/injection, schedule: Q01DX001 (sc), vehicle: other
  survivor count: 6 of 6
dose: 205.0 mg/kg/injection, schedule: Q10DX002 (sc), vehicle: other
  survivor count: 6 of 6
dose: 210.0 mg/kg/injection, schedule: Q01DX001 (other), vehicle: saline
  survivor count: 6 of 6
dose: 210.0 mg/kg/injection, schedule: Q01DX002 (other), vehicle: saline
  survivor count: 6 of 6
dose: 210.0 mg/kg/injection, schedule: Q01DX004 (other), vehicle: saline
  survivor count: 6 of 6
dose: 225.0 mg/kg/injection, schedule: Q01DX001 (ip), vehicle: saline
  survivor count: 10 of 10
dose: 256.0 mg/kg/injection, schedule: Q01DX001 (sc), vehicle: other
  survivor count: 6 of 6
dose: 256.0 mg/kg/injection, schedule: Q10DX002 (sc), vehicle: other
  survivor count: 6 of 6
dose: 262.0 mg/kg/injection, schedule: Q01DX001 (other), vehicle: saline
  survivor count: 6 of 6
dose: 262.0 mg/kg/injection, schedule: Q01DX002 (other), vehicle: saline
  survivor count: 6 of 6
dose: 262.0 mg/kg/injection, schedule: Q01DX004 (other), vehicle: saline
  survivor count: 6 of 6
dose: 320.0 mg/kg/injection, schedule: Q01DX001 (sc), vehicle: other
  survivor count: 6 of 6
dose: 320.0 mg/kg/injection, schedule: Q10DX002 (sc), vehicle: other
  survivor count: 6 of 6
dose: 328.0 mg/kg/injection, schedule: Q01DX001 (other), vehicle: saline
  survivor count: 6 of 6
dose: 328.0 mg/kg/injection, schedule: Q01DX002 (other), vehicle: saline
  survivor count: 6 of 6
dose: 400.0 mg/kg/injection, schedule: Q01DX001 (ip), vehicle: saline
  survivor count: 8 of 8
dose: 400.0 mg/kg/injection, schedule: Q01DX001 (sc), vehicle: other
  survivor count: 6 of 6
dose: 410.0 mg/kg/injection, schedule: Q01DX001 (other), vehicle: saline
  survivor count: 6 of 6
dose: 410.0 mg/kg/injection, schedule: Q01DX002 (other), vehicle: saline
  survivor count: 6 of 6
dose: 512.0 mg/kg/injection, schedule: Q01DX001 (other), vehicle: saline
  survivor count: 6 of 6
dose: 512.0 mg/kg/injection, schedule: Q01DX002 (other), vehicle: saline
  survivor count: 6 of 6
dose: 640.0 mg/kg/injection, schedule: Q01DX001 (other), vehicle: saline
  survivor count: 6 of 6
dose: 800.0 mg/kg/injection, schedule: Q01DX001 (other), vehicle: saline
  survivor count: 6 of 6
